Source: US11872219B2 (priority 2018, dated 2024)

System: rats (monosodium-iodoacetate model of osteoarthritis)
Assay: monosodium-iodoacetate model of osteoarthritis: lameness (dynamic weight bearing)
Conditions: intrathecal 15 μg, Days 2-4 and Days 22-24

SMILES: CN1CC[C@]23c4c5ccc(O)c4O[C@H]2[C@@H](O)C=C[C@H]3[C@H]1C5.O=S(=O)(O)O [morphine sulfate, reference compound]
- magnitude of efficacy on lameness, early versus late phase: comparable in the early and late phases
